Binding data for two molecules are collected here from paper PMC10165355.

No constants are given. Whether binding was seen depends on the method and setting. Binding seen in cells or lysates may run through a third protein. Some results given as binding are weak or reduced against the parent protein; the word gives no strength. For some assays here: Sequences can lack the tags named with a protein.

In assay [1] the target is T1, Flag-DCLK1 (doublecortin-like kinase 1) (UniProt O15075).
T1 sequence: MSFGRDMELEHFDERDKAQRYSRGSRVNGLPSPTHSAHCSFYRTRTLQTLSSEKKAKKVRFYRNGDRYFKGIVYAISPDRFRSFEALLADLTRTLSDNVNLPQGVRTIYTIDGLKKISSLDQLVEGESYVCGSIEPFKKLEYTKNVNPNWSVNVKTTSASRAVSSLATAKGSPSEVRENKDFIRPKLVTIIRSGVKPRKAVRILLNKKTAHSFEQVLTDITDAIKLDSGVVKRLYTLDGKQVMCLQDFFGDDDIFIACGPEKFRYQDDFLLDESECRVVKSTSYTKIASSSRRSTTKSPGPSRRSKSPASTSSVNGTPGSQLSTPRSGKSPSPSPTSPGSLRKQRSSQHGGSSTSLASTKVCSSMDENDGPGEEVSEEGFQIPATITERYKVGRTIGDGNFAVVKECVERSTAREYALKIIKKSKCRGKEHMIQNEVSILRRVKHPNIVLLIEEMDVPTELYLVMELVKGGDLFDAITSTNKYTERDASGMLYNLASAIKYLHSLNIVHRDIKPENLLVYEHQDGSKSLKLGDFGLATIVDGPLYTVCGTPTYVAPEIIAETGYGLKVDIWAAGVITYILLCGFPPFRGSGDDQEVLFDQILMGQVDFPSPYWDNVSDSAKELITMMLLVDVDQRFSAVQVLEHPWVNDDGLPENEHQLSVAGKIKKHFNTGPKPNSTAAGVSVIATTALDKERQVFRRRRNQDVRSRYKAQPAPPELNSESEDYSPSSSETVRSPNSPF
Kind of assay: co-IP; 293T cells transfected with Flag-DCLK1; Flag-DCLK1 immunoprecipitated by anti-Flag antibody (4°C overnight, Protein A+G agarose), blot for IKKβ; IgG control.

Assay [2] addresses T2, DCLK1 (endogenous in mouse primary peritoneal macrophages) (mouse (endogenous in MPMs)) (UniProt Q9JLM8).
T2 sequence: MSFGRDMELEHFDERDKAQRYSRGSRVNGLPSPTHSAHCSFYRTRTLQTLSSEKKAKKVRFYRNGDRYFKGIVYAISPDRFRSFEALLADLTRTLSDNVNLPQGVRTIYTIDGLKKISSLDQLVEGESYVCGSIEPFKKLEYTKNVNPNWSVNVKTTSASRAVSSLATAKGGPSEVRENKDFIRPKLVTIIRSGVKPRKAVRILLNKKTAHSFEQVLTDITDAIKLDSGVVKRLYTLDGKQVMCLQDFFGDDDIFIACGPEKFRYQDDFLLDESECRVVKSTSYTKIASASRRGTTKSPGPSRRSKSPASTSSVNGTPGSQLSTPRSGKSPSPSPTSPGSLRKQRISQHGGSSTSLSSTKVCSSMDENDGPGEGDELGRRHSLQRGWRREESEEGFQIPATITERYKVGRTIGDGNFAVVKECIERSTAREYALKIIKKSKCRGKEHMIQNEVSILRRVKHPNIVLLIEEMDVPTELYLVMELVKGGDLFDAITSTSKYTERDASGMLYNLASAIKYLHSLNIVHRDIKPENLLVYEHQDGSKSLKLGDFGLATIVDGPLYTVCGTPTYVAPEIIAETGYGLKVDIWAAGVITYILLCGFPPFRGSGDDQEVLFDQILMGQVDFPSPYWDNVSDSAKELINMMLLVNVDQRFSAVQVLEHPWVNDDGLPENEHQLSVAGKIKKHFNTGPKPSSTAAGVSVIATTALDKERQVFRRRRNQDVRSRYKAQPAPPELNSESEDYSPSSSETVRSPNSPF
Kind of assay: co-IP; endogenous proteins in MPMs challenged with oxLDL (50 μg/ml) for 1 h; DCLK1 immunoprecipitated by anti-DCLK1 antibody (4°C overnight, Protein A+G agarose), blot for IKKβ.

B1: IKKβ (endogenous in 293T cells) (protein, UniProt O14920 1-756)
chain: MSWSPSLTTQTCGAWEMKERLGTGGFGNVIRWHNQETGEQIAIKQCRQELSPRNRERWCLEIQIMRRLTHPNVVAARDVPEGMQNLAPNDLPLLAMEYCQGGDLRKYLNQFENCCGLREGAILTLLSDIASALRYLHENRIIHRDLKPENIVLQQGEQRLIHKIIDLGYAKELDQGSLCTSFVGTLQYLAPELLEQQKYTVTVDYWSFGTLAFECITGFRPFLPNWQPVQWHSKVRQKSEVDIVVSEDLNGTVKFSSSLPYPNNLNSVLAERLEKWLQLMLMWHPRQRGTDPTYGPNGCFKALDDILNLKLVHILNMVTGTIHTYPVTEDESLQSLKARIQQDTGIPEEDQELLQEAGLALIPDKPATQCISDGKLNEGHTLDMDLVFLFDNSKITYETQISPRPQPESVSCILQEPKRNLAFFQLRKVWGQVWHSIQTLKEDCNRLQQGQRAAMMNLLRNNSCLSKMKNSMASMSQQLKAKLDFFKTSIQIDLEKYSEQTEFGITSDKLLLAWREMEQAVELCGRENEVKLLVERMMALQTDIVDLQRSPMGRKQGGTLDDLEEQARELYRRLREKPRDQRTEGDSQEMVRLLLQAIQSFEKKVRVIYTQLSKTVVCKQKALELLPKVEEVVSLMNEDEKTVVRLQEKRQKELWNLLKIACSKVRGPVSGSPDSMNASRLSQPGQLMSQPSTASNSLPEPAKKSEELVAEAHNLCTLLENAIQDTVREQDQSFTALDWSWLQTEEEEHSCLEQAS
B1: the binding entry in assay [1] is recorded as “binds”.

B2: IKKβ (endogenous in mouse primary peritoneal macrophages) (protein, UniProt O88351 1-757)
chain: MSWSPSLPTQTCGAWEMKERLGTGGFGNVIRWHNQATGEQIAIKQCRQELSPKNRNRWCLEIQIMRRLNHPNVVAARDVPEGMQNLAPNDLPLLAMEYCQGGDLRRYLNQFENCCGLREGAVLTLLSDIASALRYLHENRIIHRDLKPENIVLQQGEKRLIHKIIDLGYAKELDQGSLCTSFVGTLQYLAPELLEQQKYTVTVDYWSFGTLAFECITGFRPFLPNWQPVQWHSKVRQKSEVDIVVSEDLNGAVKFSSSLPFPNNLNSVLAERLEKWLQLMLMWHPRQRGTDPQYGPNGCFRALDDILNLKLVHVLNMVTGTVHTYPVTEDESLQSLKTRIQENTGILETDQELLQKAGLVLLPDKPATQCISDSKTNEGLTLDMDLVFLLDNSKINYETQITPRPPPESVSCILQEPKRNLSFFQLRKVWGQVWHSIQTLKEDCNRLQQGQRAAMMSLLRNNSCLSKMKNAMASTAQQLKAKLDFFKTSIQIDLEKYKEQTEFGITSDKLLLAWREMEQAVEQCGRENDVKHLVERMMALQTDIVDLQRSPMGRKQGGTLDDLEEQARELYRKLREKPRDQRTEGDSQEMVRLLLQAIQSFEKKVRVIYTQLSKTVVCKQKALELLPKVEEVVSLMNEDERTVVRLQEKRQKELWNLLKIACSKVRGPVSGSPDSMNVSRLSHPGQLMSQPSSACDSLPESDKKSEELVAEAHALCSRLESALQDTVKEQDRSFTTLDWSWLQMEDEERCSLEQACD
For the molecule B2, the binding result in assay [2] is “binds”.
